Values from PubChem BioAssay AID652243 (Drosophila RNAi Screening Center, 2013)
The deposit covers about 24,000 reagents; this is an unselected part of those that have a named target and a result. Of all reagents, 246 (1%) were called active. 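Plates not normalised; calls are printed but the firefly/Renilla ratio behind them is not deposited; fold cut for lowering reported inconsistently.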 Raw values vary from plate to plate and are shown uncorrected. Not given: the amount of reagent.

- Assay: 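Fly genes required for human androgen receptor driven transcription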 (primary screen)
- System: Drosophila S2R+ cells
- Reagent: long dsRNA against Drosophila genes
- Time to read-out: 72 h (48 h, then 24 h hormone)
- Conditions: synthetic androgen R1881 at 10 nM for 24 h
- Read-out: 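Per-well raw luminescence of the androgen-driven firefly reporter and of the Renilla control, two replicates each, without normalisation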
- Direction: firefly reporter light: higher = more light from androgen-responsive reporter; Renilla control light: higher = more constitutive control signal (cell number, transfection)
- Active means: 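Hit when the log firefly-to-Renilla ratio dropped or increased by a fixed fold versus the mean of GFP or LacZ controls across duplicate plates; lowering cut given as 1.5 and as 3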
- Calls: active = hit: reporter lowered or raised; inactive = no hit

no.	gene	DRSC id	firefly reporter light, replicate 1	firefly reporter light, replicate 2	Renilla control light, replicate 1	Renilla control light, replicate 2	activity call
1	CG12523	DRSC09895	2.01e5	2.69e5	2.27e6	2.38e6	inactive
2	CG12523	DRSC25151	7.15e5	7.25e5	9.17e5	1.04e6	inactive
3	CG6550	DRSC07001	8.12e5	9.01e5	1.50e6	1.71e6	inactive
4	blot	DRSC09485	93022	67955	2.60e5	3.36e5	inactive
5	blot	DRSC11328	31364	60176	3.87e5	5.96e5	inactive
6	blot	DRSC26157	2.93e5	3.36e5	5.67e5	6.70e5	inactive
7	CG13168	DRSC06295	2.52e5	1.67e5	1.21e6	1.20e6	inactive
8	Pak3	DRSC15017	42089	85046	2.87e5	3.98e5	inactive
9	Pak3	DRSC26832	3.26e5	3.53e5	3.89e5	4.50e5	inactive
10	Pak3	DRSC37075					inactive
11	CG9799	DRSC16567	40397	30556	4.69e5	3.18e5	inactive
12	CG42537	DRSC12519	45010	43002	1.14e6	1.43e6	inactive
13	gcm2	DRSC03538	78940	95521	7.65e5	7.76e5	inactive
14	gcm2	DRSC29823	7.65e5	6.66e5	1.21e6	1.38e6	inactive
15	CG14569	DRSC11730	3.06e5	2.21e5	3.15e6	2.66e6	inactive
16	CG31560	DRSC12136	1.27e5	1.61e5	3.34e6	3.31e6	inactive
17	CG15553	DRSC15091	2.29e5	2.56e5	1.80e6	3.17e6	inactive
18	euc	DRSC14492	2.57e5	2.59e5	4.02e6	3.54e6	inactive
19	lncRNA:CR30009	DRSC22952	3.78e5	1.11e6	1.35e6	1.73e6	inactive
20	lncRNA:CR30009	DRSC29817	4.45e5	3.89e5	1.22e6	1.24e6	inactive
21	CG13526	DRSC04168	2.09e5	4.09e5	1.49e6	2.28e6	inactive
22	CG17364	DRSC10269	1.60e5	1.21e5	1.82e6	9.91e5	inactive
23	CG17364	DRSC10270	3.22e5	3.99e5	2.49e6	3.09e6	inactive
24	CG17364	DRSC22689	7.99e5	6.99e5	1.12e6	1.07e6	inactive
25	CG17364	DRSC29363	2.21e5	2.18e5	9.46e5	9.46e5	inactive

A run of entries of the results above:
no.	gene	DRSC id	firefly reporter light, replicate 1	firefly reporter light, replicate 2	Renilla control light, replicate 1	Renilla control light, replicate 2	activity call
1	CG12523	DRSC09895	2.01e5	2.69e5	2.27e6	2.38e6	inactive
2	CG12523	DRSC25151	7.15e5	7.25e5	9.17e5	1.04e6	inactive
